The record followed here is PubChem BioAssay AID226 (DTP/NCI, 2004).

This test deals with B6C3F1 mice, intracerebral ependymoblastoma, median survival T/C. The test is described as follows: NCI In Vivo Anticancer Drug Screen. Data for tumor model Ependymoblastoma (intracerebral) in B6C3F1 mice. The settings on record: T/C endpoint: median survival time, higher T/C = longer survival. The method, then: The antitumor activity of compounds was measured in mice bearing transplantable tumors. Survival or tumor size were measured and the results are expressed as the measurement made in the treated group (T) divided by the measurement made in the vehicle treated control group (C). The tumor model used in this assay is Ependymoblastoma (intracerebral) in B6C3F1 mice

[1] abbreviates: dose: 0.5 mg/kg/injection, schedule: Q01DX005 (ip), vehicle: saline.
[2] abbreviates: dose: 1.0 mg/kg/injection, schedule: Q01DX005 (ip), vehicle: saline.
Setting [3] is: dose: 2.0 mg/kg/injection, schedule: Q01DX005 (ip), vehicle: saline.
[4] abbreviates: dose: 4.0 mg/kg/injection, schedule: Q01DX005 (ip), vehicle: saline.
The mark [5] stands for this setting: dose: 8.0 mg/kg/injection, schedule: Q01DX005 (ip), vehicle: saline.
[6] abbreviates: dose: 16.0 mg/kg/injection, schedule: Q01DX005 (ip), vehicle: saline.
Setting [7] is: dose: 64.0 mg/kg/injection, schedule: Q01DX005 (ip), vehicle: saline with Tween-80.
The mark [8] stands for this setting: dose: 256.0 mg/kg/injection, schedule: Q01DX005 (ip), vehicle: saline with Tween-80.
Where [9] appears, read: dose: 50.0 mg/kg/injection, schedule: Q01DX009 (ip), vehicle: saline.
[10] abbreviates: dose: 200.0 mg/kg/injection, schedule: Q01DX005 (ip), vehicle: saline with Tween-80.
The mark [11] stands for this setting: dose: 256.0 mg/kg/injection, schedule: Q01DX005 (ip), vehicle: Klucel (hydroxypropylcellulose) (HPC).

The list is a part of this screen's results and no random one: it gathers tests that were run many times, whatever their T/C, doses with no T/C, and many T/C values between a quarter and a half above the control. Further doses and runs are listed elsewhere. T/C is the treated group as % of the vehicle group. Some entries give survivors of the animals treated and no T/C: the source files T/C as zero there, which appears to mark a toxic dose or a test without result, not a measured value. Some doses without a T/C left all or most animals alive at the check, yet need not have been tolerated: survival well below the control is almost never listed, so the zero probably covers shortened survival too. Survivors were counted at the toxicity check, usually on the fifth day, unless a day is given; later deaths do not show. Schedules are NCI's codes, read here as Q, the interval in days (D) or hours (H), X, the number of doses. Marks such as (2×) give the number of equal values in this list. Some doses were run more than once; their values stand side by side, smallest first. Some schedules carry Z or #; the key to these is not given. For survival time, this PubChem deposit counts one and a half times the control or more as active, and values a quarter to a half above the control carry no call in these data; other NCI protocols may use other cut-offs. Some T/C values carry the count of animals alive at the toxicity check (mostly the fifth day); without a count, all were alive then.

On to `OC(C1CO1)C(O)C1CO1` (stereo unspecified), for which the T/C is, setting by setting: under setting [1], 95 [9 of 10 alive], 100, 109 (2×), 110, 113, 117 % of control; under setting [2], 98 [9 of 10 alive], 108, 110, 111, 118, 119, 122 % of control; (dose: 2.0 mg/kg/injection, schedule: Q01DX001 (ip), vehicle: saline) 143 % of control; under setting [3], 113, 116, 118 [9 of 10 alive], 124, 130, 137, 158 % of control; (dose: 2.0 mg/kg/injection, schedule: Q01DX005 (oral), vehicle: water) 135 % of control [9 of 10 alive]; (dose: 4.0 mg/kg/injection, schedule: Q01DX001 (ip), vehicle: saline) 132 % of control. Besides, the T/C by setting is: (dose: 4.0 mg/kg/injection, schedule: Q01DX001 (ip), vehicle: water) 128 % of control; under setting [4], 141 [8 of 10 alive], 143, 147, 158, 161, 171 % of control; (dose: 4.0 mg/kg/injection, schedule: Q#A X002 (ip), vehicle: water) 131 % of control; (dose: 8.0 mg/kg/injection, schedule: Q01DX001 (ip), vehicle: saline) 148 % of control; (dose: 8.0 mg/kg/injection, schedule: Q01DX001 (ip), vehicle: water) 129 and 142 % of control. Also, the survivor count runs as follows: under setting [4], 8 of 10; (dose: 4.0 mg/kg/injection, schedule: Q01DX005 (oral), vehicle: water) 10 of 10; under setting [5], 10 of 10; (dose: 8.0 mg/kg/injection, schedule: Q01DX005 (ip), vehicle: water) 10 of 10; (dose: 8.0 mg/kg/injection, schedule: Q01DX005 (oral), vehicle: water) 9 of 10; (dose: 16.0 mg/kg/injection, schedule: Q01DX001 (ip), vehicle: water) 7 of 10 and 10 of 10. The survivor count under setting [6] is 3 of 10, 4 of 10, 6 of 10, 9 of 10, 10 of 10; the survivor count (dose: 16.0 mg/kg/injection, schedule: Q01DX005 (oral), vehicle: water) was 2 of 10; the survivor count (dose: 16.0 mg/kg/injection, schedule: Q#A X002 (ip), vehicle: water) was 1 of 10; the survivor count (dose: 32.0 mg/kg/injection, schedule: Q01DX001 (ip), vehicle: saline) is 0 of 5 and 5 of 5; the survivor count (dose: 32.0 mg/kg/injection, schedule: Q01DX001 (ip), vehicle: water) is 6 of 10 and 10 of 10; the survivor count (dose: 32.0 mg/kg/injection, schedule: Q01DX005 (oral), vehicle: water) is given as 4 of 10. Further, the survivor count (dose: 64.0 mg/kg/injection, schedule: Q01DX001 (ip), vehicle: saline) was 0 of 5.

Turning to `CN1CC[C@]23c4c5ccc(O)c4O[C@H]2C(=O)CC[C@H]3[C@H]1C5`, the survivor count (dose: 50.0 mg/kg/injection, schedule: Q01DX005 (iv), vehicle: saline) was 0 of 6.

For the compound `OCC1OC(n2cnc3c(SCc4ccccc4)ncnc32)C(O)C1O` (stereo unspecified), where the note is “dose: 300.0 mg/kg/injection, schedule: Q01DX005 (ip), vehicle: saline with Tween-80”, the survivor count is listed as 7 of 10.

Take `C#CCN(C)/N=N/c1nc[nH]c1C(N)=O`: the T/C by setting is: (dose: 16.0 mg/kg/injection, schedule: Q01DX005 (ip), vehicle: saline with Tween-80) 134 % of control; under setting [7], 146 % of control. Also, the survivor count under setting [8] is reported as 5 of 10.

In the case of `O=c1n(CC2CO2)c(=O)n(CC2CO2)c(=O)n1CC1CO1` (stereo unspecified), the T/C by setting is: (dose: 30.0 mg/kg/injection, schedule: Q01DX009 (ip), vehicle: saline) 134 % of control; (dose: 40.0 mg/kg/injection, schedule: Q01DX004 (ip), vehicle: saline) 125 % of control; (dose: 40.0 mg/kg/injection, schedule: Q01DX009 (ip), vehicle: saline) 128 % of control; (dose: 50.0 mg/kg/injection, schedule: Q01DX005 (ip), vehicle: saline with Tween-80) 127 % of control; under setting [9], 129 % of control [8 of 10 alive]; (dose: 100.0 mg/kg/injection, schedule: Q01DX009 (ip), vehicle: saline) 146 and 149 % of control. For the same compound, the survivor count by setting is: (dose: 50.0 mg/kg/injection, schedule: Q01DX004 (ip), vehicle: saline) 8 of 8; under setting [9], 8 of 8; (dose: 100.0 mg/kg/injection, schedule: Q01DX005 (ip), vehicle: saline with Tween-80) 7 of 10; under setting [10], 0 of 10.

On to `CCCCCCC(=O)O[C@H]1CC[C@H]2[C@@H]3CCC4=CC(=O)CC[C@]4(C)[C@H]3CC[C@]12C`, for which the survivor count under setting [11] is reported as 0 of 6.

In the case of `COc1cc(NS(C)(=O)=O)ccc1Nc1c2ccccc2nc2ccccc12`, the survivor count was 10 of 10 (dose: 8.0 mg/kg/injection, schedule: Q01DX005 (ip), vehicle: Klucel (hydroxypropylcellulose) (HPC)); 10 of 10 (dose: 16.0 mg/kg/injection, schedule: Q01DX005 (ip), vehicle: Klucel (hydroxypropylcellulose) (HPC)); 8 of 10 and 10 of 10 under setting [6]; 10 of 10 (dose: 16.0 mg/kg/injection, schedule: Q01DX005 (ip), vehicle: water).

In the case of `Nc1n[nH]c(N)n1`, the T/C by setting is: (dose: 128.0 mg/kg/injection, schedule: Q01DX001 (ip), vehicle: saline) 92 [survivors not given], 93 [survivors not given], 105 [9 of 10 alive], 106 % of control [survivors not given]; (dose: 256.0 mg/kg/injection, schedule: Q01DX001 (ip), vehicle: saline) 94 [survivors not given], 100 [survivors not given], 105, 106 % of control [survivors not given]; (dose: 512.0 mg/kg/injection, schedule: Q01DX001 (ip), vehicle: saline) 96 [survivors not given], 100 [survivors not given], 104 [survivors not given], 105 % of control; (dose: 1024.0 mg/kg/injection, schedule: Q01DX001 (ip), vehicle: saline) 100 [survivors not given], 104 [survivors not given], 105 [survivors not given], 109 % of control.

Take `CN(C)CCCNc1c2ccccc2nc2cccc([N+](=O)[O-])c12`: the survivor count is, setting by setting: (dose: 0.12 mg/kg/injection, schedule: Q01DX005 (ip), vehicle: saline) 10 of 10; (dose: 0.25 mg/kg/injection, schedule: Q01DX005 (ip), vehicle: saline) 9 of 10 and 10 of 10 (2×); under setting [1], 3 of 10, 5 of 10, 8 of 10; under setting [2], 0 of 10 (2×) and 3 of 10; (dose: 250.0 micrograms/kg/injection, schedule: Q01DX005 (ip), vehicle: saline) 10 of 10 (2×).

For `CCCCCCCCN(C)/N=N/c1nc[nH]c1C(N)=O`, the T/C (dose: 32.0 mg/kg/injection, schedule: Q01DX005 (ip), vehicle: saline with Tween-80) was 139 % of control; the T/C under setting [7] was 141 % of control; the T/C under setting [8] was 142 % of control [9 of 10 alive].

As to `O=C1C(NCC(O)CO)=C(N2CC2)C(=O)C(NCC(O)CO)=C1N1CC1` (stereo unspecified), the T/C was 125 % of control under setting [3], 135 % of control under setting [4] and 140 % of control under setting [5]. The survivor count under setting [6] is listed as 10 of 10.

On to `CN(C)N=Nc1ccc([N+](=O)[O-])cc1C(N)=O`, for which the T/C under setting [8] was 138 % of control. Further, the survivor count (dose: 512.0 mg/kg/injection, schedule: Q01DX005 (ip), vehicle: saline with Tween-80) is reported as 0 of 10.

Consider `CN=S(=O)(OCCCCCOS(=O)(=NC)c1ccccc1)c1ccccc1` (stereo unspecified), for which the survivor count under setting [10] is 3 of 10.

Consider `O=c1[nH]c(=O)n(C2CC(O)C(CO)O2)cc1C(F)(F)F` (stereo unspecified), for which the survivor count is listed as 10 of 10 (dose: 64.0 mg/kg/injection, schedule: Q01DX005 (ip), vehicle: Klucel (hydroxypropylcellulose) (HPC)); 10 of 10 under setting [11]; 9 of 10 (dose: 512.0 mg/kg/injection, schedule: Q01DX005 (ip), vehicle: Klucel (hydroxypropylcellulose) (HPC)).
